The target in this test is N-FLAG-tagged CAD (carbamoyl-phosphate synthetase 2, aspartate transcarbamylase, and dihydroorotase) (UniProt P27708). Briefly: co-IP; Vero cells transfected with N-FLAG-CAD for 48 h, then infected with EV71 at MOI 1.25 for 24 h; immunoprecipitation with anti-FLAG, blot with anti-VP1.

Protein sequences, listed by entry. Tags and fused reporters are not part of them. Residues count along the entry.
UniProt P27708: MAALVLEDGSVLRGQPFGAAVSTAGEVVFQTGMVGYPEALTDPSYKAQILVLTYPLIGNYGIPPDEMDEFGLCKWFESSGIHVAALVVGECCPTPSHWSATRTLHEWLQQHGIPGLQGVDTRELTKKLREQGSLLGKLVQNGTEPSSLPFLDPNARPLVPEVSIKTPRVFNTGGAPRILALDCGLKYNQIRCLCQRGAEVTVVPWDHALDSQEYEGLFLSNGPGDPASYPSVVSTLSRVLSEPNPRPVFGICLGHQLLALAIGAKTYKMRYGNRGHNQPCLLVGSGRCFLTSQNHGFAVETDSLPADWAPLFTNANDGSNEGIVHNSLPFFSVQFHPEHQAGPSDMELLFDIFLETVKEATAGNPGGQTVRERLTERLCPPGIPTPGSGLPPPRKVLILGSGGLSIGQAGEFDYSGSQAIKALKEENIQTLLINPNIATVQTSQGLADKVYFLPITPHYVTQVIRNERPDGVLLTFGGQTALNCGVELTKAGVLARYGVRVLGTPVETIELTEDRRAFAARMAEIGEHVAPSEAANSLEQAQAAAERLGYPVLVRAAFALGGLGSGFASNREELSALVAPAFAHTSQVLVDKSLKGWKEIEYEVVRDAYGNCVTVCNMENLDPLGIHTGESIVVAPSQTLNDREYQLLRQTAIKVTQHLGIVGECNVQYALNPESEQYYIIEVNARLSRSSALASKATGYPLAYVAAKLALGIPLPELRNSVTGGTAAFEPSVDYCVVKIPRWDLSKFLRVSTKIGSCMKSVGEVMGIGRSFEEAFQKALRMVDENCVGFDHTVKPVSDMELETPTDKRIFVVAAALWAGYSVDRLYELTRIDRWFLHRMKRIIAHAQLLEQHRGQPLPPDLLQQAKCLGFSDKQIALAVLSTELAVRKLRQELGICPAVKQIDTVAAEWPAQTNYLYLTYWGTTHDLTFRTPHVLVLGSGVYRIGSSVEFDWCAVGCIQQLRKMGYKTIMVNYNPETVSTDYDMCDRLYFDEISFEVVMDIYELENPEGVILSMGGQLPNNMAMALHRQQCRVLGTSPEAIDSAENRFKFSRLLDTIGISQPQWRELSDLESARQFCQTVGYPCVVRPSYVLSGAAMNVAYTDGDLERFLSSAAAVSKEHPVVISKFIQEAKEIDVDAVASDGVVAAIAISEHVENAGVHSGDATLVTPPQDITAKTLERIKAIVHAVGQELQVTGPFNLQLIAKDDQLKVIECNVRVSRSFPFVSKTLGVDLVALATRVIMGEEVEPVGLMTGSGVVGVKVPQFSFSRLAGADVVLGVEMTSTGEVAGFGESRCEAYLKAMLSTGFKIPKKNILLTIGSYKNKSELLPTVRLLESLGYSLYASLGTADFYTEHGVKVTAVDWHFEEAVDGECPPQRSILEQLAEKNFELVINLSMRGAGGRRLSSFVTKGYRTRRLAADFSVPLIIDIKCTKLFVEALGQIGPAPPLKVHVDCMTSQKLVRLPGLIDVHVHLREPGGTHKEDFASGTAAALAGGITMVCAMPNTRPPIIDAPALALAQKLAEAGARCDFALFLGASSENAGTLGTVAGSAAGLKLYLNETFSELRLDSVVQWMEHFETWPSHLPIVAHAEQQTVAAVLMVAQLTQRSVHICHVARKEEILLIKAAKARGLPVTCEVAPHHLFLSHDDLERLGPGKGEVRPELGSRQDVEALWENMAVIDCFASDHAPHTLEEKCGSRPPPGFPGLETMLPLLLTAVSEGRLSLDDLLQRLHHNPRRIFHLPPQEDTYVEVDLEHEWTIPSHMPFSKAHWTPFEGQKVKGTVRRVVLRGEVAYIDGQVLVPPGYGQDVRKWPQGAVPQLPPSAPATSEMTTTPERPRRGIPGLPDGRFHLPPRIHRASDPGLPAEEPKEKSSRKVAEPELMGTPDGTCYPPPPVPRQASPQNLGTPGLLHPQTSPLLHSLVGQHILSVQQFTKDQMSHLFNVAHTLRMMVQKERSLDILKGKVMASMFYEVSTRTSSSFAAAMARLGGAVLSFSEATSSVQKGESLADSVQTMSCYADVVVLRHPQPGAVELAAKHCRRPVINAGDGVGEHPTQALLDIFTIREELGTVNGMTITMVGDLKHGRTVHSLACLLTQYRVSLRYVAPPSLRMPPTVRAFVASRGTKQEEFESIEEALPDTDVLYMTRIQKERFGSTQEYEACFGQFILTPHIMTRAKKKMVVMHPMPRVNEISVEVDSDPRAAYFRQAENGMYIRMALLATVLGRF
UniProt Q66478, residues 566-862: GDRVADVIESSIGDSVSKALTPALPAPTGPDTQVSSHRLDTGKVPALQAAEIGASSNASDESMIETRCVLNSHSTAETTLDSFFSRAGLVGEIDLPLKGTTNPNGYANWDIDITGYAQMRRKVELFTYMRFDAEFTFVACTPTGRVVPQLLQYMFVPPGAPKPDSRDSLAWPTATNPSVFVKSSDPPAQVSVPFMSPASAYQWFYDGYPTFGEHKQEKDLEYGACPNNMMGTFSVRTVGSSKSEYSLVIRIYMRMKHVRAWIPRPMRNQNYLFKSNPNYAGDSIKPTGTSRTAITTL

Results are given in words; binding and its absence hold for the method and conditions named. Binding seen in cells or lysates may run through a third protein. Some binding calls cover weakened binding; strength is not graded here.

For “native VP1 protein of EV71 (from infection) (from UniProt Q66478 566-862)”, the binding result is “binds”.

The record behind these values is publication PMC7072837.
